In paper PMC12040169 (PLOS Biology, 2025):
Like-named read-outs stand apart in the source and are kept apart here. The list shows a part of the results.

Tested on: T1, CTL2-GFP (C. trachomatis L2/434/Bu, GFP-expressing)
T1 construct: L2/434/Bu, GFP-expressing
Design: species or system HeLa; Intracellular C. trachomatis growth in HeLa cells, bulk GFP fluorescence relative to DMSO
Settings: bulk GFP, single well, 28.5 h, 10 µM, inhibitor

Row | SMILES | % of control remaining | % of control remaining (Bulk GFP fluorescence)
1 | Cc1nn(Cc2cccc(C(=O)NCc3ccccn3)c2)c(C)c1Cl [CBK265755] | 148.722% | 
2 | CSCCCNC(=O)N(CCC#N)C1CCCCC1 [CBK156348] | 94.2447% | 
3 | Cc1c2c(nn1C)CSc1ccccc1C2=O [CBK006517] | 130.836% | 
4 | O=C(Cn1cc(C(=O)NCc2ccc(F)cc2)ccc1=O)NC1(c2ccccc2)CCCC1 [CBK286081] | 102.348% | 
5 | Nc1ncc(-c2cccc3ccccc23)nc1NCc1ccccc1 [CBK063565] | 48.2938% | 
6 | O=C(Nc1ccc(Cl)cc1)N1CCCCC1CO (centres unmarked) [CBK156179] | 102.945% | 
7 | Cc1cc(C)nc(NC2=NCCN2C(=S)Nc2ccccc2)n1 [CBK266481] | 138.703% | 
8 | Cc1ccc(Sc2ncccc2C(=O)Nc2ccnn2Cc2cccnc2)cc1C [CBK296980] | 78.9843% | 
9 | FC(F)(F)c1cc(-c2cn3ccnc3c(N3CCOCC3)n2)cc(C(F)(F)F)c1 [CBK066396] | 97.55% | 
10 | CC(=O)NCCCCCC(=O)N1CCN(c2ccc(C(F)(F)F)cc2)CC1 [CBK091312] | 119.201% | 
11 | Cc1cc(C(=O)Nc2ccccc2N2CCOCC2)c(C)o1 [CBK057243] | 85.4466% | 
12 | O=C(NC(/C=C/c1ccccc1)c1cc([N+](=O)[O-])c2cccnc2c1O)C1CCCCC1 (centres unmarked) [CBK265333] | 100.158% | 
13 | Cc1nn(Cc2c(F)cccc2Cl)c(C)c1NC(=O)CCCC(=O)O [CBK286838] | 111.226% | 
14 | Cc1ccccc1CN1CCC(NC(=O)Cn2cc(Br)ccc2=O)CC1 [CBK305716] | 125.922% | 
15 | O=[N+]([O-])c1ccc(OCCOc2nccnc2N2CCNCC2)c2ncccc12 [CBK000623C] | 134.973% | 
16 | O=C(O)c1ccc(Br)c(S(=O)(=O)Nc2ccc(Cl)cc2)c1 [CBK263247] | 97.2912% | 
17 | CC(NC(=O)c1ccccc1)c1nnc(SCC(=O)c2ccccc2)n1C (centres unmarked) [CBK269644] | 134.797% | 
18 | Cc1cc(COc2nccnc2OC2CCN(Cc3ccccc3F)CC2)no1 [CBK082948T] | 80.8075% | 
19 | NS(=O)(=O)c1ccc(CCNC(=O)c2ccc(C#Cc3ccccc3)cc2)cc1 [CBK263089] | 100% | 
20 | O=C(Nc1cccnc1)c1cnc2cc(C(F)(F)F)ccc2c1O [CBK107474] |  | 100%
21 | Cc1onc(-c2ccccc2)c1-c1n[nH]c(=S)o1 [CBK009044] | 131.054% | 
22 | CCS(=O)(=O)N1CCc2cc(-c3csc(-c4cnn(C)c4)n3)ccc21 [CBK305560] | 114.281% | 
23 | CC(=O)Nc1nc2cc3c(cc2s1)OCCO3 [CBK287618] | 124.93% | 
24 | O=C(Cc1ccc(Cl)cc1Cl)NCCc1c[nH]c2ccc(Cl)cc12 [CBK159744] | 109.942% | 
25 | CCOC(=O)c1cnn2c(N)c(C(N)=O)nnc12 [CBK023694] | 125.73% | 
26 | CC(C)Nc1cc(OC2CCN(C)CC2)ncn1 [CBK113280] | 114.155% | 
27 | COc1ccc(Oc2nccc(N3CCCN(CCCO)CC3)n2)cc1OC [CBK084158] | 124.407% | 

Row | SMILES | % of control remaining | % of control remaining (Bulk GFP fluorescence)
28 | CCCNC(=O)CSc1ncccc1C(=O)O [CBK287202] | 132.11% | 
29 | O=C(/C=C/c1cccc2ccccc12)N1CCCCCC1 [CBK264092] | 108.93% | 
30 | O=C(CCc1cccnc1)N1CCC(F)CC1 [CBK200275] | 100.317% | 
31 | CN1CCC(NC(=O)c2cccc(NC(=O)C3CCCCC3)c2)C1=O (centres unmarked) [CBK306228] | 109.383% | 
32 | O=C(O)C(Cc1ccccc1)N1C(=O)c2cccc([N+](=O)[O-])c2C1=O (centres unmarked) [CBK115372] | 112.157% | 
33 | Cc1csc(NC(=O)c2cccn(Cc3cccc([N+](=O)[O-])c3)c2=O)n1 [CBK294414] | 159.45% | 
34 | CC(=O)c1ccc(-c2cnc3[nH]c(=O)n(C4CCCCC4)c3n2)s1 [CBK064382] | 104.43% | 
35 | O=C(O)C1CC1C(=O)N1CCC2(CC1)OCCc1c2[nH]c2ccccc12 (centres unmarked) [CBK047167] | 118.723% | 
36 | O=C(O)CCCC(=O)Nc1cc([N+](=O)[O-])ccc1O [CBK265592] | 124.598% | 
37 | O=C(NCCc1cccs1)N1CCC2(CC1)OCCc1c2[nH]c2ccccc12 [CBK047129] | 137.549% | 
38 | Cc1sc2nc(SCc3nc4ccccc4[nH]3)n(Cc3ccco3)c(=O)c2c1C [CBK267554] | 95.609% | 
39 | CNC(=O)NC(=O)C(C)NCC1(c2cc(C)ccc2OC)CCOCC1 (centres unmarked) [CBK306318] | 110.709% | 
40 | O=P(O)(O)Cc1ccccc1-c1ccccc1 [CBK012659] | 84.5632% | 
41 | Brc1ncccc1OCc1ccccc1 [CBK001458] | 81.3688% | 
42 | Cc1ccc(-c2nnc([C@H]3CCN(Cc4ccc(CO)o4)C3)o2)cc1 [CBK289399] | 120.184% | 
43 | [O-][n+]1cc(-c2ccccc2)[n+]([O-])c2c1CCCC2 [CBK264847] | 100% | 
44 | O=C(CN1CCNCC1)Nc1ccc(Oc2ccccc2)cc1 [CBK267191C] | 177.632% | 
45 | Cc1nc2c(c(=O)[nH]1)CC[C@@H]1CN(C(=O)c3ccccc3F)C[C@H]21 [CBK284410] | 88.9893% | 
46 | C=CCn1c(Cc2csc(NC(=O)c3ccc(OC(F)F)cc3)n2)n[nH]c1=S [CBK295338] | 134.357% | 
47 | CN(C)S(=O)(=O)c1ccc(C(=O)C2=C(O)C(=O)N(Cc3cccnc3)C2c2ccc(F)cc2)cc1 (centres unmarked) [CBK264715] | 100% | 
48 | O=C1NC2(CCc3ccccc31)CCN(C(=O)c1ccc(F)cc1)C2 (centres unmarked) [CBK285308] | 140.68% | 
49 | O=C(NCc1ccccn1)c1cc2cc(F)ccc2[nH]1 [CBK107276] | 103.46% | 
50 | COc1ccc(Cn2cnc3[nH]ncc3c2=O)cc1 [CBK288049] | 141.798% | 
51 | Fc1ccc(N(CCCN2CCN(c3ncccn3)CC2)c2ccc(F)cc2)cc1 [CBK025127C] | 92.1998% | 
52 | COc1ccc(Nc2nc(-c3cc(C(C)C)ccc3OC)cn3ccnc23)cn1 [CBK066354] | 176.033% | 
53 | Cc1cc(S(=O)(=O)N2CCCCC2)ccc1OCC(=O)O [CBK269254] | 143.857% | 
54 | COCc1ccc(C(=O)NCC2CCCOC2)o1 (centres unmarked) [CBK282188] | 142.903% | 

Part of the list above in another layout:
O=P(O)(O)Cc1ccccc1-c1ccccc1 [CBK012659]
  % of control remaining: 84.5632%
Brc1ncccc1OCc1ccccc1 [CBK001458]
  % of control remaining: 81.3688%
Cc1ccc(-c2nnc([C@H]3CCN(Cc4ccc(CO)o4)C3)o2)cc1 [CBK289399]
  % of control remaining: 120.184%

(cont.)

Row | SMILES | % of control remaining | % of control remaining (Bulk GFP fluorescence)
55 | c1ccc(-c2cc(-c3ccccc3)n3nc(Cc4nc5nc(-c6ccccc6)cc(-c6ccccc6)n5n4)nc3n2)cc1 [CBK261017] | 111.614% | 
56 | Cn1c(=O)c2c(nc(CN3CCOCC3)n2CCN2CCOCC2)n(C)c1=O [CBK269560] | 120.033% | 
57 | CC(C)N(C(=O)c1ccccc1-c1cnn2cccnc12)C(C)C [CBK307701] | 92.6742% | 
58 | CN(Cc1ccccc1)C(C#N)c1c[nH]c2ccccc12 (centres unmarked) [CBK087062] | 131.338% | 
59 | CS(=O)(=O)Nc1ccc(-c2ccccc2)c2ccccc12 [CBK083741] | 151.472% | 
60 | CC(C)NC(=O)C1CCCN(c2nc3ccccc3n2C)C1 (centres unmarked) [CBK282373] | 120.228% | 
61 | O=C(NCCNc1cnccn1)c1cncc(Br)c1 [CBK304278] | 83.8703% | 
62 | CCOC(=O)CNC(=O)c1cc2ccccc2c(=O)o1 [CBK058083] | 114.346% | 
63 | CC(=O)c1ccc(-c2nccnc2NCC2CC2)s1 [CBK037975] | 109.118% | 
64 | Cc1cc(C)nc(N/C(=N\C(=O)Nc2ccccc2)NCc2cccnc2)n1 [CBK132681] | 90.5859% | 
65 | O=C(NCCC1=CCCCC1)Nc1ccc(SC(F)(F)F)cc1 [CBK043725] | 112.483% | 
66 | Cc1c(C(=O)O)c(-c2ccc(Cl)cc2)cn1CCO [CBK286959] | 130.268% | 
67 | COc1ccccc1N1CCN(C(=O)CCC(=O)c2cccs2)CC1 [CBK091498] | 112.917% | 
68 | COc1cc(C(=O)N2CCC(N(C)C)C2)ccc1Nc1cncc(-c2cc3ccccc3[nH]2)n1 (centres unmarked) [CBK161475] | 127.261% | 
69 | Nc1nc(=O)c2cnc3ccc(C(=O)O)cc3c2s1 [CBK291239] | 159.45% | 
70 | Cc1nnc2nc(-c3cccc(Cl)c3Cl)[nH]n12 [CBK263845] | 100% | 
71 | Nc1ncc(-c2ccc(C(=O)N3CCOCC3)cc2)cc1C(=O)NCc1ccc(S(N)(=O)=O)cc1 [CBK158597] | 112.438% | 
72 | Cc1nc(C)c(CC(=O)NC(c2ccncc2)c2cccs2)s1 (centres unmarked) [CBK281439] | 117.164% | 
73 | COc1cc(NC(=S)P(=O)(c2ccccc2)c2ccccc2)c(OC)cc1Cl [CBK021976] | 111.012% | 
74 | N#Cc1ccncc1NCc1ccccc1CN1CCCC1CO (centres unmarked) [CBK304021] | 162.212% | 
75 | CC(C)CC(NC(=O)N1CCOc2ccc(Cl)cc2C1)c1ncnn1C (centres unmarked) [CBK306544] | 97.4733% | 
76 | CC(=O)Nc1ccc(S(=O)(=O)Oc2ccc(/C=C3\SC(=N)NC3=O)cc2Cl)cc1 [CBK265357] | 102.753% | 
77 | CC1=C[C@@H](CNC(=O)c2ccccn2)[C@H](C(C)C)C[C@H]1CC(=O)N1CCCC1 [CBK289207] | 102.728% | 
78 | COc1ccc(C(=O)NNC(=O)c2cccc(Cl)c2)cc1OC [CBK261704] | 101.806% | 
79 | CCS(=O)(=O)c1ccc2oc([C@H]3CCN(S(=O)(=O)c4ccccc4)C3)nc2c1 [CBK289382] | 124.395% | 
80 | Cc1ccn(CC(=O)N2CC[C@H]3NC(=O)COc4ccccc4CCCC[C@@H]3C2)c(=O)c1 [CBK292045] | 118.749% | 
